No constants are given. Whether binding was seen depends on the method and setting. Binding can be weak; no strength is given.
Molecular target: T1, DISC1 amino acids 361–385 peptide (array) (human) (UniProt Q9NRI5)
T1 sequence (peptide): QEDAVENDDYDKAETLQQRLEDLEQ
Test: peptide or protein array; human DISC1 peptide array and alanine scanning peptide array of DISC1 amino acids 361-385, probed with FLAG-C0-C1-C2 (cytoplasmic tail of GluN1 fused to FLAG)

binding: binds
Substance: cytoplasmic tail of GluN1 fused to FLAG (domain or fragment)

Source: publication PMC6127284
